Results from patent US9914958B2, “Nucleic acid-based linkers for detecting and measuring interactions” (President and Fellows of Harvard College, priority 2011, dated 2018).
At least one structure is not confirmed: it was looked up by name or label, or the drawing left a doubt.

How the values were obtained:
[1] = system: polyclonal anti-digoxigenin antibody; assay: DNA nanoswitch gel assay of antibody-antigen dissociation (dig-labeled oligo and anti-dig-labeled oligo); assay type: binding; settings: digoxigenin and its polyclonal antibody
[2] = system: polyclonal anti-digoxigenin antibody; assay: Single-molecule force spectroscopy in optical trap, bond rupture under constant force (receptor-ligand looped linker); assay type: binding; settings: constant force of 49±2 pN, maximum likelihood estimation, exponential decay, 95% confidence band 0.9-2.0 s

C[C@]12CC[C@H](O)C[C@H]1CC[C@@H]1[C@@H]2C[C@@H](O)[C@]2(C)[C@@H](C3=CC(=O)OC3)CC[C@]12O [digoxigenin]
dissociation time constant [1]: 18.5 h | characteristic lifetime [2]: 1.3 s
